The list is a part of this screen's results and no random one: it gathers tests that were run many times, whatever their T/C, doses with no T/C, and many T/C values between a quarter and a half above the control. Other doses and runs of a compound stand elsewhere. T/C is the treated group as % of the vehicle group. Some doses have a count of surviving animals in place of a T/C: the source holds a T/C of zero for them, seemingly a mark for toxic or unscored doses. Some survivor counts are full or nearly so, which does not show that the dose was tolerated: survival well below the control is almost never listed, so the zero probably covers shortened survival too. Counts of survivors are from the toxicity check (mostly the fifth day) where no day follows; animals may have died later. Schedules are NCI's codes, taken here to give the interval after Q, in days (D) or hours (H), and the number of doses after X. Signs of the kind (2×) say how often a value occurs here. Some doses were run more than once; their values stand side by side, smallest first. For survival time, this PubChem deposit counts one and a half times the control or more as active, and values a quarter to a half above the control carry no call in these data; other NCI protocols may use other cut-offs. Some T/C values are followed by the survivors on the day toxicity was checked, most often the fifth; where none is given, no animal had died by that day.
Tested on: P388 leukemia ip, CD2F1 mice, survival T/C
Experiment: NCI In Vivo Anticancer Drug Screen. Data for tumor model P388 Leukemia (intraperitoneal) in CD2F1 (CDF1) mice
Details: T/C endpoint: median survival time, higher T/C = longer survival
[1] = dose: 120.0 mg/kg/injection, schedule: Q01DX005 (ip), vehicle: saline with Tween-80
[2] = dose: 240.0 mg/kg/injection, schedule: Q01DX005 (ip), vehicle: saline with Tween-80
[3] = dose: 50.0 mg/kg/injection, schedule: Q01DX009 (ip), vehicle: Klucel (hydroxypropylcellulose) (HPC)
[4] = dose: 100.0 mg/kg/injection, schedule: Q01DX009 (ip), vehicle: Klucel (hydroxypropylcellulose) (HPC)
[5] = dose: 200.0 mg/kg/injection, schedule: Q01DX009 (ip), vehicle: Klucel (hydroxypropylcellulose) (HPC)
[6] = dose: 50.0 mg/kg/injection, schedule: Q01DX005 (ip), vehicle: Klucel (hydroxypropylcellulose) (HPC)
[7] = dose: 100.0 mg/kg/injection, schedule: Q01DX005 (ip), vehicle: Klucel (hydroxypropylcellulose) (HPC)
[8] = dose: 200.0 mg/kg/injection, schedule: Q01DX005 (ip), vehicle: Klucel (hydroxypropylcellulose) (HPC)
[9] = dose: 25.0 mg/kg/injection, schedule: Q01DX005 (ip), vehicle: Klucel (hydroxypropylcellulose) (HPC)
[10] = dose: 200.0 mg/kg/injection, schedule: Q04DX003 (ip), vehicle: Klucel (hydroxypropylcellulose) (HPC)
[11] = dose: 400.0 mg/kg/injection, schedule: Q04DX003 (ip), vehicle: Klucel (hydroxypropylcellulose) (HPC)
[12] = dose: 100.0 mg/kg/injection, schedule: Q04DX003 (ip), vehicle: Klucel (hydroxypropylcellulose) (HPC)

CC(=O)OCC1OC([Se-])C(OC(C)=O)C(OC(C)=O)C1OC(C)=O.N#CCC[PH+](CCC#N)CCC#N.[Au+] (configuration not stated)
T/C [1]: 126 % of control | T/C [2]: 131 % of control [5 of 6 alive]

CCCCC(CC)CN1CN(CC(CC)CCCC)CC(C)(N)C1 (configuration not stated)
survivor count (dose: 200.0 mg/kg/injection, schedule: Q01DX005 (ip), vehicle: saline with Tween-80): 1 of 5

O=[N+]([O-])c1ccc(S(=O)/N=C/c2ccccc2)c([N+](=O)[O-])c1 (configuration not stated)
survivor count [3]: 0 of 6 and 1 of 6 | survivor count [4]: 0 of 6 | survivor count [5]: 0 of 6

C/C(=N\NC(=S)N1CCC(C)CC1)c1nccnc1C
survivor count [6]: 2 of 6 | survivor count [7]: 0 of 6 | survivor count [8]: 0 of 6

Cc1[nH]c(C)c(Br)c(=O)c1F
survivor count [3]: 3 of 6 | survivor count [4]: 0 of 6 | survivor count [5]: 0 of 6

CCOC(=O)Oc1cc2c(c(OC)c1OC)-c1ccc(OC)c(=O)cc1C(NC(C)=O)CC2 (configuration not stated)
survivor count [9]: 6 of 6 | survivor count [6]: 3 of 6 | survivor count [7]: 5 of 6

CC1NC(CCCCCCCCCCC2=CC(CCCCCCCCCCC3CCC(O)C(C)N3)C3CCCN3C2)CCC1O (configuration not stated)
survivor count (dose: 7.5 mg/kg/injection, schedule: Q01DX005 (ip), vehicle: water): 6 of 6 | survivor count (dose: 15.0 mg/kg/injection, schedule: Q01DX005 (ip), vehicle: water): 0 of 6, 1 of 6, 2 of 6 | survivor count (dose: 30.0 mg/kg/injection, schedule: Q01DX005 (ip), vehicle: water): 0 of 6 | survivor count (dose: 60.0 mg/kg/injection, schedule: Q01DX005 (ip), vehicle: water): 0 of 6 | survivor count (dose: 120.0 mg/kg/injection, schedule: Q01DX005 (ip), vehicle: water): 0 of 6

C=C(C)C(=O)O[C@@H]1C/C(C)=C\[C@H](OC(C)=O)C[C@](C)(O)/C=C2/OC(=O)C(COC(C)=O)=C21
survivor count (dose: 22.0 mg/kg/injection, schedule: Q01DX005 (ip), vehicle: Klucel (hydroxypropylcellulose) (HPC)): 1 of 5 | survivor count (dose: 44.0 mg/kg/injection, schedule: Q01DX005 (ip), vehicle: Klucel (hydroxypropylcellulose) (HPC)): 0 of 5 and 6 of 6 | survivor count (dose: 88.0 mg/kg/injection, schedule: Q01DX005 (ip), vehicle: Klucel (hydroxypropylcellulose) (HPC)): 1 of 6 | survivor count (dose: 176.0 mg/kg/injection, schedule: Q01DX005 (ip), vehicle: Klucel (hydroxypropylcellulose) (HPC)): 0 of 6

O=[N+]([O-])c1ccccc1-c1ccc2c(O)c(Cl)c(Cl)c(O)c2n1
survivor count [10]: 0 of 6 | survivor count [11]: 0 of 6

NCCCCCC(CCN)SCC1OC(n2cnc3c(N)ncnc32)C(O)C1O (configuration not stated)
survivor count (dose: 60.0 mg/kg/injection, schedule: Q01DX005 (ip), vehicle: saline with Tween-80): 0 of 6 | survivor count [1]: 0 of 6 | survivor count [2]: 0 of 6

COc1cc2c[n+](C)c3c4cc(OC)c(OC)cc4c(OC)cc3c2cc1OC
T/C [9]: 125 % of control | T/C [6]: 132 % of control | T/C (dose: 50.0 mg/kg/injection, schedule: Q01DX005 (ip), vehicle: saline): 125 % of control [5 of 6 alive] | T/C [7]: 127 % of control [5 of 6 alive] | survivor count [8]: 3 of 6

O=S(=O)(Nc1cc2ccccc2cc1NS(=O)(=O)N1CCCCC1)N1CCCCC1
survivor count [5]: 6 of 6

CCOC(=O)c1ccc(N=NC2Sc3nc4ccccc4n3C2=O)cc1 (configuration not stated)
survivor count (dose: 60.0 mg/kg/injection, schedule: Q01DX005 (ip), vehicle: Klucel (hydroxypropylcellulose) (HPC)): 6 of 6 | survivor count (dose: 120.0 mg/kg/injection, schedule: Q01DX005 (ip), vehicle: Klucel (hydroxypropylcellulose) (HPC)): 6 of 6 | survivor count (dose: 240.0 mg/kg/injection, schedule: Q01DX005 (ip), vehicle: Klucel (hydroxypropylcellulose) (HPC)): 4 of 6

COc1ccc(-c2nn(C)c3c2C(=O)CCC3)cc1OC
survivor count [11]: 3 of 6

O=S(=O)(ON=C1C=CC(=NOS(=O)(=O)c2ccccc2)C=C1)c1ccccc1
survivor count (dose: 25.0 mg/kg/injection, schedule: Q04DX003 (ip), vehicle: Klucel (hydroxypropylcellulose) (HPC)): 6 of 6 | T/C [12]: 125 % of control | survivor count [12]: 6 of 6 | survivor count [10]: 6 of 6

CCN(CC)CCCNc1ccc(C)c2sc3ccccc3c(=O)c12
survivor count (dose: 100.0 mg/kg/injection, schedule: Q01DX005 (ip), vehicle: saline): 1 of 5 | survivor count (dose: 200.0 mg/kg/injection, schedule: Q01DX005 (ip), vehicle: saline): 0 of 5

CCN(CC)C1CC(O[C@H]2C[C@](O)(C(C)=O)Cc3c(O)c4c(c(O)c32)C(=O)c2c(OC)cccc2C4=O)OC(C)C1O (some centres not stated)
T/C (dose: 0.5 mg/kg/injection, schedule: Q01DX009 (ip), vehicle: water): 128 % of control | T/C (dose: 1.0 mg/kg/injection, schedule: Q01DX009 (ip), vehicle: water, evaluated on day 30): 133 % of control | T/C (dose: 1.0 mg/kg/injection, schedule: Q01DX009 (ip), vehicle: water, evaluated on day 45): 129 % of control | T/C (dose: 2.0 mg/kg/injection, schedule: Q01DX009 (ip), vehicle: water, evaluated on day 30): 145 % of control [5 of 6 alive] | T/C (dose: 2.0 mg/kg/injection, schedule: Q01DX009 (ip), vehicle: water, evaluated on day 45): 148 % of control | T/C (dose: 4.32 mg/kg/injection, schedule: Q04DX003 (ip), vehicle: water): 134 % of control | T/C (dose: 7.2 mg/kg/injection, schedule: Q04DX003 (ip), vehicle: water): 147 % of control | survivor count (dose: 8.0 mg/kg/injection, schedule: Q01DX009 (ip), vehicle: water): 6 of 6 | survivor count (dose: 16.0 mg/kg/injection, schedule: Q01DX009 (ip), vehicle: water): 6 of 6 (2×) | T/C (dose: 24.0 mg/kg/injection, schedule: Q04DX003 (ip), vehicle: water): 137 % of control

O=C(CCCN1CCN(c2cc3ccccc3cn2)CC1)c1ccc(F)cc1
survivor count [7]: 4 of 6 | survivor count [8]: 1 of 6
